Where a chain is given by its changes, count along the chain named. Names may count otherwise. No constants are given. Whether binding was seen depends on the method and setting. Binding seen in cells or lysates may run through a third protein. Some results given as binding are weak or reduced against the parent protein; the word gives no strength. Values belong to the binder of their own block, whether it stands above or below them.
Target: T1, ferroptosis suppressor protein 1 (FSP1) (UniProt Q9BRQ8)
T1 sequence: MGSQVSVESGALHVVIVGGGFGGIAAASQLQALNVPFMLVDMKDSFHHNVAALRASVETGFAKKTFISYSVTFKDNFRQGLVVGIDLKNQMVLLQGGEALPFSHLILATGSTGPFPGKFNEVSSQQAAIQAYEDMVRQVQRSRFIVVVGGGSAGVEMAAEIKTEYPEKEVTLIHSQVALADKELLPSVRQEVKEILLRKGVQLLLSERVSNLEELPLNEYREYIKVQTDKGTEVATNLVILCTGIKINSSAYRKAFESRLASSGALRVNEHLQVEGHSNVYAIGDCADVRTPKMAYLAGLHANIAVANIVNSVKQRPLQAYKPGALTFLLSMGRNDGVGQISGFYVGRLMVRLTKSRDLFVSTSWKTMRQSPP
Assay: co-IP; FSP1 with wild-type or Y41A mutant NMT1; cells not given

binding: binds
B1: wild-type NMT1 (enzyme, UniProt P30419 1-496)
chain: MADESETAVKPPAPPLPQMMEGNGNGHEHCSDCENEEDNSYNRGGLSPANDTGAKKKKKKQKKKKEKGSETDSAQDQPVKMNSLPAERIQEIQKAIELFSVGQGPAKTMEEASKRSYQFWDTQPVPKLGEVVNTHGPVEPDKDNIRQEPYTLPQGFTWDALDLGDRGVLKELYTLLNENYVEDDDNMFRFDYSPEFLLWALRPPGWLPQWHCGVRVVSSRKLVGFISAIPANIHIYDTEKKMVEINFLCVHKKLRSKRVAPVLIREITRRVHLEGIFQAVYTAGVVLPKPVGTCRYWHRSLNPRKLIEVKFSHLSRNMTMQRTMKLYRLPETPKTAGLRPMETKDIPVVHQLLTRYLKQFHLTPVMSQEEVEHWFYPQENIIDTFVVENANGEVTDFLSFYTLPSTIMNHPTHKSLKAAYSFYNVHTQTPLLDLMSDALVLAKMKGFDVFNALDLMENKTFLEKLKFGIGDGNLQYYLYNWKCPSMGAEKVGLVLQ

binding: binds
B2: Y41A mutant NMT1 (enzyme, UniProt P30419 1-496)
chain: B1 chain with Y41A

— article PMC12510807
